Data published in article PMC7856738.
These are yes or no findings as the source states them, for the method shown. Binding seen in cells or lysates may run through a third protein. Here binding means that the protein was enriched with, or labelled near, the bait; the list need not be complete.

Amino acid sequences for entries named in this document (tags omitted).
UniProt O43255: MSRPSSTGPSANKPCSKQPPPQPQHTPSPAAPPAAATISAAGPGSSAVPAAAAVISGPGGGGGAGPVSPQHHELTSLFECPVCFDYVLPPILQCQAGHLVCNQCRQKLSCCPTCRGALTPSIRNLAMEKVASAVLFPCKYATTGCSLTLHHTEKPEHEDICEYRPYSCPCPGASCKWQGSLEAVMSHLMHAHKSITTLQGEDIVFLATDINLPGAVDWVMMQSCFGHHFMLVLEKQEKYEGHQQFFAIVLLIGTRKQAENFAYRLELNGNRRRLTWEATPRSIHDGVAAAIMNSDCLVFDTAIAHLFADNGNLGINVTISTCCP
UniProt Q9Y5S2: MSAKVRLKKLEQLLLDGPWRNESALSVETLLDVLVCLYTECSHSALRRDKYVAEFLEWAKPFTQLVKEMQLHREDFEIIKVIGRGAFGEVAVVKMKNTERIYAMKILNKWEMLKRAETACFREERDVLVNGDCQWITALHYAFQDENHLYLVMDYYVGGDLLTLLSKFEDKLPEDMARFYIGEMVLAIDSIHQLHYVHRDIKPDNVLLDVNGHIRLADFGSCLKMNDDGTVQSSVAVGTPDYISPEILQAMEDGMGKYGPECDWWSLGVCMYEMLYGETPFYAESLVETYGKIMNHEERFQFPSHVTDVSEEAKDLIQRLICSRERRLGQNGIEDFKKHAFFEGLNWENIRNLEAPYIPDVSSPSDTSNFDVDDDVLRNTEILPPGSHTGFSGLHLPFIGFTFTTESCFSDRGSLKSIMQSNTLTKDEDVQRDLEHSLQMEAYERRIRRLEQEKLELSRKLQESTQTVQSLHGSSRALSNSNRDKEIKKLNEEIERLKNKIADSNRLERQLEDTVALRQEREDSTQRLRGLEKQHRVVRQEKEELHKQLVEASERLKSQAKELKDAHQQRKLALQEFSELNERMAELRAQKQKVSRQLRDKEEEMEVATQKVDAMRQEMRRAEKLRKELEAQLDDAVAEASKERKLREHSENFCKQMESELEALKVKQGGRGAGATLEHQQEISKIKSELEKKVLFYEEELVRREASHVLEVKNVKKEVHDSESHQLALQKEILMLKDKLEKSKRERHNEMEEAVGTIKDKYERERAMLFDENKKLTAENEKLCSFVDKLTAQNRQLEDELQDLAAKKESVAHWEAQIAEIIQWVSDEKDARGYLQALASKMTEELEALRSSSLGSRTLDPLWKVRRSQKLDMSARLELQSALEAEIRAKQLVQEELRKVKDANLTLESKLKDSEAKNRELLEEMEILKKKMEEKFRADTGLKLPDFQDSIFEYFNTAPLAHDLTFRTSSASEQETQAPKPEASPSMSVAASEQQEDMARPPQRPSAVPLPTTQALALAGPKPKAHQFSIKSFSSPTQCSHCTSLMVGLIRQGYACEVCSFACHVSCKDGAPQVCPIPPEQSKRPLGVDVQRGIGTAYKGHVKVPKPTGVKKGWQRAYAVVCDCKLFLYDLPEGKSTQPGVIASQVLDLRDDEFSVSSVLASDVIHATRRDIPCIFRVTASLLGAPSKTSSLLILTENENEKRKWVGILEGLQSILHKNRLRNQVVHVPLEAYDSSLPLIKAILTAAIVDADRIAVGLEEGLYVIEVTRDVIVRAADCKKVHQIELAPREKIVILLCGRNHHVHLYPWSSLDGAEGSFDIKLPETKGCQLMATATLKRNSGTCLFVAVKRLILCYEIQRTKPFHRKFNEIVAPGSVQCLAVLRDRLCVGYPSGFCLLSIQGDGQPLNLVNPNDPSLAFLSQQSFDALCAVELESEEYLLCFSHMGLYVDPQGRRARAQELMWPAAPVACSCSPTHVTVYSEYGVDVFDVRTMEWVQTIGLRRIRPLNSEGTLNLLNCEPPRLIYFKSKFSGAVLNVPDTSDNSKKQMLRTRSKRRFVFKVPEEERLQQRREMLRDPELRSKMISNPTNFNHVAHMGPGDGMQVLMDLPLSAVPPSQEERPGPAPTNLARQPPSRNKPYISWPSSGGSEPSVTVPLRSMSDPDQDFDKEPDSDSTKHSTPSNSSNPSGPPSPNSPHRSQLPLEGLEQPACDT

Molecular target: seven in absentia homolog 2 (Siah2), overexpressed from the full-length human siah2 plasmid (human) (UniProt O43255)
Assay: affinity purification with mass spectrometry; MKN45 cells transfected with siah2 overexpression plasmid or vector control, infected with H. pylori 26695 for 12 h at 200 MOI; whole cell lysates immunoprecipitated with Siah2 antibody, SDS-PAGE, Coomassie staining, bands cut, mass spectrometry

Substance: myotonic dystrophy kinase-related Cdc42-binding kinase β (MRCKβ), endogenous (from UniProt Q9Y5S2 1-1711) (enzyme)
- binding: binds
